Results are given as percent effect. The controls that fix the scale are not given in the record; negative values are as filed. This is an unselected part of the compounds tested.

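Whole-cell growth test on Mycobacterium tuberculosis, read after 4 days in a medium based on cholesterol and the lipid DPPC; the read-out is not stated. Tested at 500 µM. Direction is inferred from retests: higher values go with more growth inhibition. Size under these conditions: about 18,000 compounds, about 900 of them at 50% or above in at least one test.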

| # | SMILES | effect |
|---|---|---|
| 1 | `CN(CCCS(C)(=O)=O)CC1CCN(CCO)CC1` | -5.945% |
| 2 | `NCC1CCCCN1C(=O)CN1CCc2sccc2C1` (centres unmarked) | 12.26% |
| 3 | `CC1CCN(C(=O)Cn2cncc(Br)c2=O)CC1` | -11.27% |
| 4 | `CSCCCC(=O)Nc1ccc(C)c(C(=O)N(C)C)c1` | -11.84% |
| 5 | `CC(=Cc1ccccc1)CN1CCC(C(N)=O)C1` (centres unmarked) | 16.58% |
| 6 | `O=C(CCN1C(=O)CCC1=O)OCC(=O)c1ccc[nH]1` | -5.928% |
| 7 | `CC(O)(CN)C1CCCC1` (centres unmarked) | -11.27% |
| 8 | `O=C(Nc1ccc(NC(=O)C2CC2)nc1)NC1CC1` | -1.718% |
| 9 | `CN(C)S(=O)(=O)CCCN1CCCC1c1ccco1` (centres unmarked) | -33.3% |
| 10 | `CN(C)Cc1nc(C(=O)N2CCN(C)CC(O)C2)cs1` (centres unmarked) | -19.59% |
| 11 | `NCCOc1ccccc1OCCN` | 5.586% |
| 12 | `CCn1nnc2c(cnn2-c2ccccc2)c1=O` | -9.174% |
| 13 | `CSCC(=O)NC1CCc2nccn2C1` (centres unmarked) | -18.27% |
| 14 | `CN(C)C(=O)CCCS(=O)(=O)c1ccc(C#N)cc1Cl` | -2.135% |
| 15 | `Cc1ccc(-c2cc(C(N)=O)[nH]n2)cc1C` | -2.528% |
| 16 | `CNC(CO)c1ccc(Cl)cc1` (centres unmarked) | 2.807% |
| 17 | `NC1CCN(CCN2CCOCC2)C1` (centres unmarked) | -25.39% |
| 18 | `CC(C)Oc1ccc(CNC(=O)N2CCCC2)cn1` | 59.87% |
| 19 | `CCOCC(O)CSc1nccn1-c1cccc(F)c1` (centres unmarked) | 59.79% |
| 20 | `CC(=O)c1ccc(OCC(O)Cn2ccnc2)cc1` (centres unmarked) | -9.563% |
| 21 | `O=C(CSc1cnn[nH]1)NCc1ccc(F)cc1` | 6.109% |
| 22 | `Brc1nnnn1-c1ccc2c(c1)OCCO2` | 11.36% |
| 23 | `CCc1cnc(NCCN2CCC(O)CC2)nc1` | -3.821% |
| 24 | `O=C(c1cc(Cl)ccc1O)N1CCOCC1` | -3.281% |
| 25 | `COCC(C)NC(=O)Cc1csc(-c2ccccn2)n1` (centres unmarked) | -2.934% |
| 26 | `O=C(CNCc1ccco1)Nc1ccccc1` | 18.98% |
| 27 | `CCN(CC)CCOC1CCNCC1` | 1.153% |
| 28 | `O=C1[C@H]2CNC[C@H]2C(=O)N1Cc1ccccc1` | -3.353% |
| 29 | `Cc1ccc(N2C=NS(=O)(=O)c3cccnc32)cc1C` | 0.07557% |
| 30 | `N#Cc1ccc(NCC(=O)NC2CCOCC2)cc1` | 6.382% |
| 31 | `CC(CO)(CO)NC(=O)c1ccc(-c2ccccc2)o1` | -9.335% |
| 32 | `CC(Nc1ccc(F)cc1)C(=O)N1CCCC1` (centres unmarked) | 51.75% |
| 33 | `Nc1nc(CCNC(=O)CSCCN2CCCC2)cs1` | -0.3808% |
| 34 | `CCC1(C(N)=O)CCCN(C(=O)c2cn[nH]c2)C1` (centres unmarked) | -2.298% |
| 35 | `CNc1cccnc1N(C)C` | -27.58% |
| 36 | `COc1ccc(CC2CCN2)cc1` (centres unmarked) | 63.73% |
| 37 | `CCn1ccc(CN2CC3(CCNCC3)OC2=O)n1` | -4.799% |
| 38 | `O=C(NC1CC1)C1CCN(CC2CCC2)CC1` | -16.88% |
| 39 | `COCC(C)NC(=O)c1cccnc1OCC(F)(F)F` (centres unmarked) | -7.845% |
| 40 | `COc1cccc(OCC(=O)NCC2CCCO2)c1` (centres unmarked) | 48.81% |
| 41 | `CCN1CCN(Cc2nc(C3CC3)no2)CC1` | 0.2914% |
| 42 | `CNCC1(CO)CCOCC1` | 7.345% |
| 43 | `CN1CCN(c2ccccc2C#N)CC1` | 14.24% |
| 44 | `COc1ccccc1CN1CCC(N)CC1` | 42.25% |
| 45 | `CN(C)S(=O)(=O)NCc1ccc(Cn2ccnc2)cc1` | 23.73% |
| 46 | `CC(C)CC(N)C(=O)N1CCNC(=O)C1` (centres unmarked) | -8.224% |
| 47 | `CCC1(CN)COC1` | 1.898% |
| 48 | `Cc1cccc(C(=O)Nc2cc[nH]n2)c1F` | 6.081% |

Data taken from ChEMBL document CHEMBL3988442, “University of Dundee, Small-Polar-MMV Screening Library” (2021).